Assay results taken from publication PMC11480952.
Results are given in words; binding and its absence hold for the method and conditions named. Binding seen in cells or lysates may run through a third protein. Some binding calls cover weakened binding; strength is not graded here. Sequences can lack the tags named with a protein.

Each binder was assayed against serine/threonine protein kinase ARAF (v-raf murine sarcoma 3611 viral oncogene homolog) (human (endogenous in liver cancer cells)) (UniProt P10398) (assay: co-IP; co-immunoprecipitation with anti-ARAF, Western blot; liver cancer cells of the rLV group and the rLV-CARM1 (CARM1 overexpressing) group compared).

Row | binding | Binder
1 | binds | TOR1B (protein, UniProt O14657 25-336) FEPITVGLAIGAASAITGYLSYNDIYCRFAECCREERPLNASALKLDLEEKLFGQHLATEVIFKALTGFRNNKNPKKPLTLSLHGWAGTGKNFVSQIVAENLHPKGLKSNFVHLFVSTLHFPHEQKIKLYQDQLQKWIRGNVSACANSVFIFDEMDKLHPGIIDAIKPFLDYYEQVDGVSYRKAIFIFLSNAGGDLITKTALDFWRAGRKREDIQLKDLEPVLSVGVFNNKHSGLWHSGLIDKNLIDYFIPFLPLEYRHVKMCVRAEMRARGSAIDEDIVTRVAEEMTFFPRDEKIYSDKGCKTVQSRLDFH
2 | binds | OSTC (protein, UniProt Q9NRP0 1-149) METLYRVPFLVLECPNLKLKKPPWLHMPSAMTVYALVVVSYFLITGGIIYDVIVEPPSVGSMTDEHGHQRPVAFLAYRVNGQYIMEGLASSFLFTMGGLGFIILDRSNAPNIPKLNRFLLLFIGFVCVLLSFFMARVFMRMKLPGYLMG
3 | binds | MYCL1 (protein, UniProt P12524 1-364) MDYDSYQHYFYDYDCGEDFYRSTAPSEDIWKKFELVPSPPTSPPWGLGPGAGDPAPGIGPPEPWPGGCTGDEAESRGHSKGWGRNYASIIRRDCMWSGFSARERLERAVSDRLAPGAPRGNPPKASAAPDCTPSLEAGNPAPAAPCPLGEPKTQACSGSESPSDSENEEIDVVTVEKRQSLGIRKPVTITVRADPLDPCMKHFHISIHQQQHNYAARFPPESCSQEEASERGPQEEVLERDAAGEKEDEEDEEIVSPPPVESEAAQSCHPKPVSSDTEDVTKRKNHNFLERKRRNDLRSRFLALRDQVPTLASCSKAPKVVILSKALEYLQALVGAEKRMATEKRQLRCRQQQLQKRIAYLTGY
4 | binds | RB1 (protein, UniProt P06400 1-928) MPPKTPRKTAATAAAAAAEPPAPPPPPPPEEDPEQDSGPEDLPLVRLEFEETEEPDFTALCQKLKIPDHVRERAWLTWEKVSSVDGVLGGYIQKKKELWGICIFIAAVDLDEMSFTFTELQKNIEISVHKFFNLLKEIDTSTKVDNAMSRLLKKYDVLFALFSKLERTCELIYLTQPSSSISTEINSALVLKVSWITFLLAKGEVLQMEDDLVISFQLMLCVLDYFIKLSPPMLLKEPYKTAVIPINGSPRTPRRGQNRSARIAKQLENDTRIIEVLCKEHECNIDEVKNVYFKNFIPFMNSLGLVTSNGLPEVENLSKRYEEIYLKNKDLDARLFLDHDKTLQTDSIDSFETQRTPRKSNLDEEVNVIPPHTPVRTVMNTIQQLMMILNSASDQPSENLISYFNNCTVNPKESILKRVKDIGYIFKEKFAKAVGQGCVEIGSQRYKLGVRLYYRVMESMLKSEEERLSIQNFSKLLNDNIFHMSLLACALEVVMATYSRSTSQNLDSGTDLSFPWILNVLNLKAFDFYKVIESFIKAEGNLTREMIKHLERCEHRIMESLAWLSDSPLFDLIKQSKDREGPTDHLESACPLNLPLQNNHTAADMYLSPVRSPKKKGSTTRVNSTANAETQATSAFQTQKPLKSTSLSLFYKKVYRLAYLRLNTLCERLLSEHPELEHIIWTLFQHTLQNEYELMRDRHLDQIMMCSMYGICKVKNIDLKFKIIVTAYKDLPHAVQETFKRVLIKEEEYDSIIVFYNSVFMQRLKTNILQYASTRPPTLSPIPHIPRSPYKFPSSPLRIPGGNIYISPLKSPYKISEGLPTPTKMTPRSRILVSIGESFGTSEKFQKINQMVCNSDRVLKRSAEGSNPPKPLKKLRFDIEGSDEADGSKHLPGESKFQQKLAEMTSTRTRMQKQKMNDSMDTSNKEEK
